According to PubChem BioAssay AID1487 (National Center for Advancing Translational Sciences (NCATS), 2009):
Some of the results follow. Shown are side measurements of this screen, not its main read-out; they come without a call. Compounds called inactive in the main read-out are mostly missing here. Potencies come from curve fits of mixed quality, noted in brackets.

Test: qHTS Assay for Modulators of Lamin A Splicing
Conditions: HeLa LMNA splicing GFP/RFP minigene ratio, 48 h
How it was run: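 S3 HeLa stable clones carrying a lamin A-EGFP splicing minigene plus DsRed2 were seeded at 600 cells/well in Opti-MEM with 2% FBS, pin-dosed and incubated 48 h at 37°C. Acumen cytometry (488 nm) gave the GFP/RFP total-intensity ratio.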

[1] = measured here: RFP viability control channel
[2] = measured here: GFP splicing reporter channel

O=C1CN(C(=O)Cn2ncc(Cl)c(Cl)c2=O)c2ccccc2N1
AC50 [1]: 35.5 µM [rising, single point]

O=C1c2ccccc2-n2c1nc1ccccc1c2=O
AC50 [1]: 0.355 µM [falling, partial curve]

O=C1NCC(COCc2ccccc2)O1 (configuration not stated)
AC50 [1]: 4.47 µM [falling, full curve, poor fit]

COCCNC(=O)/C(C#N)=C/c1nc(N(C)C)n(-c2ccc(F)cc2)c1Cl
AC50 [1]: 35.5 µM [rising, single point]

COc1cc(/C=N/Nc2cc(C)nc(NS(=O)(=O)c3ccc(C)cc3)n2)ccc1O
AC50 [1]: 7.08 µM [rising, partial curve]

COc1ccccc1N1CCN(C(c2ccccc2)c2nnnn2CCc2ccccc2)CC1 (configuration not stated)
AC50 [2]: 17.8 µM [rising, single point] | AC50 [1]: 31.6 µM [rising, single point]

Cc1[nH]n(-c2ccccc2)c(=O)c1C(c1cccc([N+](=O)[O-])c1)c1c(C)[nH]n(-c2ccccc2)c1=O
AC50 [2]: 0.141 µM [falling, partial curve, poor fit]

COc1ccc(OC)c(NC(=O)COC(=O)Cc2ccc(Br)cc2)c1
AC50 [2]: 0.355 µM [rising, full curve, poor fit]

CC1(C)Oc2ccc3ccc(=O)oc3c2/C(=C/Nc2ccc(O)cc2)C1=O
AC50 [2]: 20 µM [falling, single point] | AC50 [1]: 35.5 µM [falling, single point]

CN(C1CCCCC1)S(=O)(=O)c1ccc(NC(=S)NC(=O)c2cccs2)cc1
AC50 [2]: 35.5 µM [rising, single point]

Cn1c(NCc2cccnc2)nc2c1c(=O)n(Cc1ccccc1F)c(=O)n2C
AC50 [1]: 11.2 µM [rising, single point]

Cc1ccccc1NS(=O)(=O)c1cc(C(=O)Nc2cccc([N+](=O)[O-])c2)ccc1C
AC50 [1]: 17.8 µM [rising, partial curve, poor fit]

CCCn1cnc2scc(-c3ccc(C)cc3)c2c1=O
AC50 [2]: 11.2 µM [falling, partial curve, poor fit] | AC50 [1]: 11.2 µM [falling, partial curve]

CC(C)(C)c1ccc(C(=O)NC(=S)Nc2nc3c(s2)CCCC3)cc1
AC50 [2]: 15.8 µM [rising, partial curve] | AC50 [1]: 15.8 µM [rising, partial curve]

Cc1ncc(CO)c(/C=N/NC(=S)Nc2ccc(F)cc2)c1O
AC50 [1]: 35.5 µM [rising, single point]

N#Cc1ccc(C(=O)Nc2nc(-c3cccs3)c(C(=O)C(F)(F)F)s2)cc1
AC50 [2]: 1 µM [rising, single point] | AC50 [1]: 5.62 µM [rising, partial curve]

Cc1cc(C)cc(N(CC(=O)NCc2ccc3c(c2)OCO3)C(=O)CCC(=O)Nc2ccccn2)c1
AC50 [2]: 3.55 µM [rising, partial curve, poor fit] | AC50 [1]: 0.224 µM [rising, full curve, poor fit]

CCN1C(=O)c2cccc3c(NS(=O)(=O)c4ccc(NC(C)=O)cc4)ccc1c23
AC50 [1]: 10 µM [rising, partial curve]

Cn1cc(Cl)c(-c2n[nH]c(=S)n2-c2ccccc2)n1
AC50 [2]: 5.01 µM [rising, single point]

O=C(CC1C(=O)OCC2CCCCN21)Nc1ccccc1C(F)(F)F (configuration not stated)
AC50 [1]: 3.98 µM [falling, single point]

CCOC(=O)c1ccc(-c2ccc(/C=C(\C#N)C(=O)Nc3cccc(C)c3)o2)cc1
AC50 [1]: 2.51 µM [falling, single point]

Cc1nn(C)cc1NC(=O)c1ccc(Br)o1
AC50 [1]: 35.5 µM [rising, single point]

Cc1cccc(OCC(=O)N/N=C/c2cn[nH]c2-c2ccc(Cl)c(Cl)c2)c1
AC50 [2]: 35.5 µM [falling, single point] | AC50 [1]: 35.5 µM [falling, partial curve]

COc1ccc(-n2c(=O)cnc3cnc(N(C)C)nc32)cc1
AC50 [2]: 10 µM [falling, partial curve]

Cc1ccccc1-c1nc(NCc2cccs2)c2ccccc2n1
AC50 [2]: 12.6 µM [falling, partial curve] | AC50 [1]: 20 µM [falling, single point]

COc1ccc(-c2cc(-n3c(C(F)(F)F)nc4ccccc43)n(CCC#N)n2)cc1
AC50 [2]: 12.6 µM [rising, single point]

COc1ccc(C(=O)/C=C/N(C)C)cc1OC
AC50 [2]: 12.6 µM [rising, single point] | AC50 [1]: 20 µM [rising, single point]

COc1ccc(CNC(=O)c2cc(-c3ccccc3OC)on2)cc1
AC50 [1]: 35.5 µM [rising, single point]

O=C(CSc1nnc(-c2ccccc2Cl)o1)N1CCCCC1
AC50 [1]: 10 µM [rising, partial curve]

Nc1nc(=S)c2ncn([C@H]3O[C@@H](CO)[C@@H](O)[C@@H]3O)c2[nH]1
AC50 [2]: 14.1 µM [falling, single point] | AC50 [1]: 1.12 µM [falling, partial curve, poor fit]

Cc1nc(N)sc1-c1csc(N(C)c2ccc(O)cc2)n1
AC50 [2]: 14.1 µM [rising, single point] | AC50 [1]: 11.2 µM [rising, single point]

Cc1cc(Nc2cccc(F)c2)nc(NCc2ccccc2)n1
AC50 [2]: 17.8 µM [rising, partial curve, poor fit] | AC50 [1]: 14.1 µM [rising, partial curve]

Cc1cccc(OC(C)C(=O)N2CCC(c3nc4ccccc4o3)CC2)c1C (configuration not stated)
AC50 [2]: 20 µM [falling, partial curve] | AC50 [1]: 22.4 µM [falling, partial curve, poor fit]

O=C1c2ccccc2C(=O)c2c(NCCCN(CCO)CCO)cccc21
AC50 [1]: 2.82 µM [rising, partial curve]

Fc1ccccc1CSc1nnnn1-c1ccc2c(c1)OCO2
AC50 [2]: 35.5 µM [rising, single point] | AC50 [1]: 35.5 µM [rising, single point]

O=c1c(-c2ccc(F)cc2)nc2cnc(N3CCNCC3)nc2n1Cc1ccc(F)cc1
AC50 [2]: 20 µM [falling, single point] | AC50 [1]: 22.4 µM [falling, partial curve]

COc1ccc(CCNC(=O)CSCc2ccc([N+](=O)[O-])cc2)cc1OC
AC50 [1]: 12.6 µM [rising, single point]

Cc1oc(-c2ccc(C(=O)N(C)Cc3ccccc3)cc2)nc1CN1CCc2ccccc21
AC50 [1]: 25.1 µM [rising, single point]

Cc1cc(C)nc(NC(=O)c2csnn2)c1
AC50 [1]: 0.316 µM [falling, partial curve]

CC(=O)/C(C#N)=C1\NC(=O)C(Cc2ccc(C)c(C)c2)S1 (configuration not stated)
AC50 [2]: 1.41 µM [rising, full curve] | AC50 [1]: 3.55 µM [rising, full curve]

O=C(Nc1ccc2c(c1)OCCO2)c1ccc(Cl)c(S(=O)(=O)N2CCOCC2)c1
AC50 [2]: 10 µM [rising, partial curve, poor fit] | AC50 [1]: 12.6 µM [rising, partial curve]

O=C(O)c1cc2c(ccc3ccccc32)[nH]1
AC50 [1]: 14.1 µM [rising, single point]

Cc1cccc(N2CCN(C(=O)CCNS(=O)(=O)c3ccc4c(c3)CCN4C(=O)C3CC3)CC2C)c1 (configuration not stated)
AC50 [2]: 28.2 µM [falling, partial curve, poor fit]

Cc1cc(SCC(=O)N/N=C/c2cccnc2)nc2c(C)cccc12
AC50 [2]: 20 µM [falling, partial curve] | AC50 [1]: 35.5 µM [falling, single point]

O=C(Nc1cccc2ccccc12)N1CCCN(c2c(Cl)cncc2Cl)CC1
AC50 [1]: 14.1 µM [falling, partial curve]

COc1ccc(NS(=O)(=O)c2ccc(N)cc2)nn1
AC50 [2]: 0.00447 µM [falling, full curve, poor fit] | AC50 [1]: 0.00355 µM [rising, full curve, poor fit]

c1ccc(CNc2ncnc3[nH]ncc23)cc1
AC50 [2]: 0.316 µM [falling, full curve, poor fit] | AC50 [1]: 0.251 µM [falling, full curve, poor fit]

COc1cc([N+](=O)[O-])ccc1N/C=C/C(=O)c1cccs1
AC50 [2]: 1.78 µM [falling, full curve] | AC50 [1]: 5.62 µM [falling, full curve]

Cc1ccc(S(=O)(=O)N(C)CCCC(=O)Nc2ccc(C)cc2C)cc1
AC50 [1]: 17.8 µM [rising, partial curve]

COc1ccc(/C=N/NC(=O)c2ccoc2C)cc1COc1c(C)cccc1C
AC50 [2]: 12.6 µM [rising, single point] | AC50 [1]: 17.8 µM [rising, single point]

CCc1nc(Sc2nc(C)cc(C)n2)c2oc3ccccc3c2n1
AC50 [1]: 11.2 µM [rising, partial curve]

CCc1ccccc1NC(=O)N1CC(CC)Oc2ccc(Cl)cc21 (configuration not stated)
AC50 [1]: 14.1 µM [rising, partial curve, poor fit]

C/C(=N\NC(=O)CNc1cccc(C(F)(F)F)c1)c1cccc(Br)c1
AC50 [1]: 0.224 µM [rising, full curve, poor fit]

Cc1ccccc1C(=O)OC1OC(=O)C(Cl)=C1N1CCOCC1 (configuration not stated)
AC50 [2]: 3.55 µM [falling, single point]

O=C(N1CCCC1)C(F)(F)Oc1ccc(F)cc1
AC50 [2]: 1.78 µM [falling, full curve, poor fit]
